For part of these data: At least one compound was matched to its structure with a doubt left. Some results were stated once for a whole list of compounds, not compound by compound.
Assays:
IBABP mRNA = test: Regulation of IBABP expression in Caco-2 cells, quantitative RT-PCR; type: cell-based, human; settings: 100 μM, 24 h, normalized to ARPP0
Procedure: (§1) The expression of IBABP-L and IBABP was measured by quantitative RT-PCR. The mRNA copy number of each variant is normalized to the expression the housekeeping gene ARPP0. Values in the figure represent the average of three experiments with each replicate performed in duplicate.
(§2) To determine the relative expression levels of IBABP-L and IBABP, a two-step quantitative RT-PCR procedure was used. In the first step, complementary DNA (cDNA) was synthesized from total RNA. […] In the second step, quantitative PCT (QPCR) was carried out on a Mx 3000P Real-Time PCR System (Stratagene, La Jolla, Calif.) using a solution containing diluted cDNA (1:20; 2.0 μl), 1×SYBR Green PCR Master Mix (Applied Biosystems, Foster City, Calif.), and primers for IBABP-L, IBABP, or ARPP0 (0.25 μM). […]
(§3) Caco-2 cells were seeded in six-well plates (Falcon) at 2×10^5 cells/well. […] Cells were harvested, cellular RNA was isolated using the RNeasy Mini Kit (Qiagen) according to manufacturer instruction, and expression of IBABP variants was determined by QPCR as described above. […]

IBABP-L mRNA = test: Regulation of IBABP-L expression in Caco-2 cells, quantitative RT-PCR; type: cell-based, human; settings: 100 μM, 24 h, normalized to ARPP0
Procedure: as §1, §2, §3

| SMILES | increase in expression of IBABP (IBABP mRNA) | effect on expression of IBABP-L (IBABP-L mRNA) |
| --- | --- | --- |
| C[C@H](CCC(=O)O)[C@H]1CC[C@H]2[C@@H]3[C@H](O)C[C@@H]4C[C@H](O)CC[C@]4(C)[C@H]3CC[C@]12C [CDCA, chenodeoxycholic acid] | up to 13 fold | – |
| C[C@H](CCC(=O)O)[C@H]1CC[C@H]2[C@@H]3CC[C@@H]4C[C@H](O)CC[C@]4(C)[C@H]3C[C@H](O)[C@]12C [DCA, deoxycholic acid] | up to 13 fold | without effect |
